This is an account of results in patent US20210221903A1 (HRAIN BIOTECHNOLOGY, published 2021).

For this experiment, the target named is T1, B-cell maturation antigen (BCMA) on U266 cells (UniProt Q02223 1-184, limits assumed).
T1 sequence (looked up): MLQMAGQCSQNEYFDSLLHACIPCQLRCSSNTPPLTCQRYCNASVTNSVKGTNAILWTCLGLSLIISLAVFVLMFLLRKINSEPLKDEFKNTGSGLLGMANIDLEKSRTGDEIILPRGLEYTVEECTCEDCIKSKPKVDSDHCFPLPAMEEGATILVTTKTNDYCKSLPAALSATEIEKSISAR
In words: cell-based or functional assay.

B1: BCMA-targeting chimeric antigen receptor (anti-BCMA scFv-CD8 hinge-CD8TM-41BB-CD3ζ), expressed on BCMA-tEGFR CAR T-cells (other)
chain: DIVLTQSPASLAMSLGKRATISCRASESVSVIGAHLIHWYQQKPGQPPKLLIYLASNLETGVPARFSGSGSGTDFTLTIDPVEEDDVAIYSCLQSRIFPRTFGGGTKLEIKGGGGSGGGGSGGGGSQIQLVQSGPELKKPGETVKISCKASGYTFTDYSINWVKRAPGKGLKWMGWINTETREPAYAYDFRGRFAFSLETSASTAYLQINNLKYEDTATYFCALDYSYAMDYWGQGTSVTVSSTTTPAPRPPTPAPTIASQPLSLRPEACRPAAGGAVHTRGLDFACDIYIWAPLAGTCGVLLLSLVITLYCRFSVVKRGRKKLLYIFKQPFMRPVQTTQEEDGCSCRFPEEEEGGCELRVKFSRSADAPAYQQGQNQLYNELNLGRREEYDVLDKRRGRDPEMGGKPRRKNPQEGLYNELQKDKMAEAYSEIGMKGERRRGKGHDGLYQGLSTATKDTYDALHMQALPPR
As for B1, the “killing of U266 cells at effector:target ratio of 10:1” value came out at 70%.
